This passage reports binding results from US20040138118A1.

No constants are given. Whether binding was seen depends on the method and setting. In cells and extracts the contact can be indirect. Some entries that bind do so weakly or less than the wild type.

In assay [1] the target is T1, myostatin C-terminal dimer (human) (UniProt O14793).
T1 sequence: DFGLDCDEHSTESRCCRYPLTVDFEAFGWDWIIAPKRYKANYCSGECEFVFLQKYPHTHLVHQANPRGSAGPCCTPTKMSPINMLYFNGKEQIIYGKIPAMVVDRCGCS
The experiment in a line: co-purification of the latent complex from CHO conditioned medium (FIG. 3C).

Assay [2] concerns the target T1, myostatin C-terminal dimer (human). Kind of assay: co-purification from CHO conditioned medium, SDS-PAGE and western blot (FIG. 3C).
Assay [3] has the same target. Kind of assay: co-purification over hydroxyapatite, lentil lectin, DEAE agarose and heparin columns (FIG. 3C).

In the case of “D76A mutant myostatin pro peptide (from UniProt O14793 24-266)”, the binding result in assay [1] and in assay [2] was “binds” each time.
Take “myostatin pro peptide (wild type) (from UniProt O14793 24-266)”: the binding result in assay [3] and in assay [2] was “binds” throughout.
